Measurements published in article PMC3161794.
These are yes or no findings as the source states them, for the method shown. In cells and extracts the contact can be indirect. Some results given as binding are weak or reduced against the parent protein; the word gives no strength. Tags and fused reporters may be left off the sequences shown.

By UniProt entry, the sequences of proteins in these tests, tags left out.
UniProt P27361: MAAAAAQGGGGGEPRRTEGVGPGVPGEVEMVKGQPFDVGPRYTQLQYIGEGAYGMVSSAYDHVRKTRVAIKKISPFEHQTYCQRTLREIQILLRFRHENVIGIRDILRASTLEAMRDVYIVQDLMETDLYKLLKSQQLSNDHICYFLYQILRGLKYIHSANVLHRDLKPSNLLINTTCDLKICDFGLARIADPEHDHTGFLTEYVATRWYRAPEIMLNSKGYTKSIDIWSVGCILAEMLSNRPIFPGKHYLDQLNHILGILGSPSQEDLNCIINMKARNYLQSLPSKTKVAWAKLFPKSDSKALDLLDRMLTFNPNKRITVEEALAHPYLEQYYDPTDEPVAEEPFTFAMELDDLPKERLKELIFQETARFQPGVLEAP
UniProt P63086: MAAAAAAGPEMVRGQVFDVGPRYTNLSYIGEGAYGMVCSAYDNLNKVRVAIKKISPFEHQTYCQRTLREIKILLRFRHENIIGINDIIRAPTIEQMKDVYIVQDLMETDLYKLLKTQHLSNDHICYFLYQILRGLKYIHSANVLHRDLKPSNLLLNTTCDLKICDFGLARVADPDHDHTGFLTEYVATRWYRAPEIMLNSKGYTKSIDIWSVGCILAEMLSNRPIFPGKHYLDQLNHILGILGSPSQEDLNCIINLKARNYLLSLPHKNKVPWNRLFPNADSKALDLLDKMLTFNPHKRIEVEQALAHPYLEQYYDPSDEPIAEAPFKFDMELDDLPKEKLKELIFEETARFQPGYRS

Legend:
[1] = molecular target: T1, FLAG-tagged mitochondrial aconitase (mAcon-FLAG) (human) (UniProt Q99798); experiment: co-IP; data not shown; told within the paragraph on immunoprecipitation of epitope-tagged proteins co-expressed in HEK293T cells
T1 sequence: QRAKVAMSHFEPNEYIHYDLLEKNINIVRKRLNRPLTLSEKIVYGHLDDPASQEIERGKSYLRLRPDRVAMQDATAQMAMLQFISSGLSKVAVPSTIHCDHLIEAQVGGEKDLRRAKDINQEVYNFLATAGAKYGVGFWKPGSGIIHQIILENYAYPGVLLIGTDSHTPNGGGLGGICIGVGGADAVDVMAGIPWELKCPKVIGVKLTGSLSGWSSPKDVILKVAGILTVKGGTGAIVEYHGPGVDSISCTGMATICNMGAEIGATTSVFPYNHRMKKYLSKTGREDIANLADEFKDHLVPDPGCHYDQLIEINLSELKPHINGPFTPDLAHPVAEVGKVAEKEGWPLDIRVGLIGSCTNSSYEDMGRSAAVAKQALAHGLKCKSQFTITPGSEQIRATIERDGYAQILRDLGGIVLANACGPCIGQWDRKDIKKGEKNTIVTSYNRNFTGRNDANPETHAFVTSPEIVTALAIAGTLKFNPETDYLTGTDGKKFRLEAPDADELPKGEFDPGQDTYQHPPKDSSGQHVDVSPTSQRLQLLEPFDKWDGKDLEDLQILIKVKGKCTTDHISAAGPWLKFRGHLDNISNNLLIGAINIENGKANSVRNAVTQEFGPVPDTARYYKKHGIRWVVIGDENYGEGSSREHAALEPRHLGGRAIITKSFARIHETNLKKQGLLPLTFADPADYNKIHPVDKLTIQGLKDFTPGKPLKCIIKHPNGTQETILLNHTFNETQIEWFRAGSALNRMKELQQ

[2] = molecular target: T2, FLAG-tagged cytosolic aconitase (cAcon-FLAG) (human) (UniProt P21399); experiment: co-IP; ERK2 and FLAG-tagged aconitase coexpressed in HEK293T; NP-40 extracts incubated with M2 agarose FLAG beads 2 hours at 4°C; immunoblot for total ERK1/2 and FLAG; cells ±100 ng/ml EGF after serum starvation
T2 sequence: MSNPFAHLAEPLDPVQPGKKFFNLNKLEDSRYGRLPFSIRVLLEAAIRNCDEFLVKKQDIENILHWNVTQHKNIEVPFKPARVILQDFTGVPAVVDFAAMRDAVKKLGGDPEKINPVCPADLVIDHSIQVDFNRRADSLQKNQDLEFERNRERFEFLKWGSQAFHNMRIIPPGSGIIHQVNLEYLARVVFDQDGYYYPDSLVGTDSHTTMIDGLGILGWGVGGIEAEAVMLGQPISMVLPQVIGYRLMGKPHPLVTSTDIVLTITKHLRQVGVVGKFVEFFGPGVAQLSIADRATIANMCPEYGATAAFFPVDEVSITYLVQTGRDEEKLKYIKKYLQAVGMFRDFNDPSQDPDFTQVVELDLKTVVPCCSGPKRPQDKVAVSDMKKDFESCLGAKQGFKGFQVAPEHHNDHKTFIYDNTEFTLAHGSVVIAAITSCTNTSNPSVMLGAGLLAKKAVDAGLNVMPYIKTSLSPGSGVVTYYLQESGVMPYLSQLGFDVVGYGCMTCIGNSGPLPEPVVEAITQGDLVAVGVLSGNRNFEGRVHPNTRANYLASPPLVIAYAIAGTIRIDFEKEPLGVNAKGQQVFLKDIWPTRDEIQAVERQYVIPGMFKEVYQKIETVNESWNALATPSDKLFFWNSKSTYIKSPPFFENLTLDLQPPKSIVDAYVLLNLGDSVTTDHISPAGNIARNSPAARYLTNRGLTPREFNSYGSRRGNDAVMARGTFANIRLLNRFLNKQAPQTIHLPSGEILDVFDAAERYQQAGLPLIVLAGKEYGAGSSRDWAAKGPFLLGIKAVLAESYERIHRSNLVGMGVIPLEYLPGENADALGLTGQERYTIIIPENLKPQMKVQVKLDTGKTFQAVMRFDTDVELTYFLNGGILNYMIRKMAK

Substance	binding [1]	binding [2]
ERK1 (pcDNA3-T7-ERK1) (from UniProt P27361 1-379) (enzyme)	binds	–
ERK2 WT (pcDNA3-HA-ERK2 wt) (from UniProt P63086 1-358) (enzyme)	–	binds
